According to publication PMC7397856:
Results are given in words; binding and its absence hold for the method and conditions named. Binding seen in cells or lysates may run through a third protein. Binding calls can cover weak binding; strength is not graded here. For part of these data: Tags and fused reporters may be left off the sequences shown. Values belong to the molecule of their own block, whether it stands above or below them.

Amino acid sequences for entries named in this document (tags omitted). A change or cut given only in a name is not applied to a line headed by its entry.
UniProt Q9NZ71: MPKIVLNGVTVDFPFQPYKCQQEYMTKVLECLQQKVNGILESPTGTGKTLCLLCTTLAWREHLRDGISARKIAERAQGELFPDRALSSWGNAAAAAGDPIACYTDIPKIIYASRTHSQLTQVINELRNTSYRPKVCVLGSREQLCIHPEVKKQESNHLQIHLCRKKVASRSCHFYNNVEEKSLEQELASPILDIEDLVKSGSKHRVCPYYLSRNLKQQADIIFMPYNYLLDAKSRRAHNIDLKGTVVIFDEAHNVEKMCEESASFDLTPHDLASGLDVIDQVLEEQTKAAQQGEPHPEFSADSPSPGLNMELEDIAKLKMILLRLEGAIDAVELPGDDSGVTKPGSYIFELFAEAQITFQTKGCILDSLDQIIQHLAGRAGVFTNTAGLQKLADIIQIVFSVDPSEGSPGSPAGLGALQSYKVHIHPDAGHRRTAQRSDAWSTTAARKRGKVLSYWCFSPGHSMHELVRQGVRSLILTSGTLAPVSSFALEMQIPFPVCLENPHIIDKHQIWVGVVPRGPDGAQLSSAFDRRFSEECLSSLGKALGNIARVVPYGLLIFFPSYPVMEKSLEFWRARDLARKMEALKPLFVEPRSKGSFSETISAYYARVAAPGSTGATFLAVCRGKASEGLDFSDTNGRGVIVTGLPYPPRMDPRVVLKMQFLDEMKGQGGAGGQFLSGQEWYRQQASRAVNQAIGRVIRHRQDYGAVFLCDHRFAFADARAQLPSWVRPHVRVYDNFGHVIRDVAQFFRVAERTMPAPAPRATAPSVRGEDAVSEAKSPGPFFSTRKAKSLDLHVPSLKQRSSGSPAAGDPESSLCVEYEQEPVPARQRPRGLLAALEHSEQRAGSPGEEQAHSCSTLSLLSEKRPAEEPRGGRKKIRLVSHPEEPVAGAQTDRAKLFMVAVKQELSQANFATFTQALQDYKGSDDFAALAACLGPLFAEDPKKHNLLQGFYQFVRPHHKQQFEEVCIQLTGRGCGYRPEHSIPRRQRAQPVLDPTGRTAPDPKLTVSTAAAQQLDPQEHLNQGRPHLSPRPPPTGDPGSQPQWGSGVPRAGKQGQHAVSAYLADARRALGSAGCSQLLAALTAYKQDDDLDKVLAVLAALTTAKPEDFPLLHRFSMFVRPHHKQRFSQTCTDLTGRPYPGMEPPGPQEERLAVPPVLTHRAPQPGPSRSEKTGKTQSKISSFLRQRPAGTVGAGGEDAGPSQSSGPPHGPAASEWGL
UniProt P28340: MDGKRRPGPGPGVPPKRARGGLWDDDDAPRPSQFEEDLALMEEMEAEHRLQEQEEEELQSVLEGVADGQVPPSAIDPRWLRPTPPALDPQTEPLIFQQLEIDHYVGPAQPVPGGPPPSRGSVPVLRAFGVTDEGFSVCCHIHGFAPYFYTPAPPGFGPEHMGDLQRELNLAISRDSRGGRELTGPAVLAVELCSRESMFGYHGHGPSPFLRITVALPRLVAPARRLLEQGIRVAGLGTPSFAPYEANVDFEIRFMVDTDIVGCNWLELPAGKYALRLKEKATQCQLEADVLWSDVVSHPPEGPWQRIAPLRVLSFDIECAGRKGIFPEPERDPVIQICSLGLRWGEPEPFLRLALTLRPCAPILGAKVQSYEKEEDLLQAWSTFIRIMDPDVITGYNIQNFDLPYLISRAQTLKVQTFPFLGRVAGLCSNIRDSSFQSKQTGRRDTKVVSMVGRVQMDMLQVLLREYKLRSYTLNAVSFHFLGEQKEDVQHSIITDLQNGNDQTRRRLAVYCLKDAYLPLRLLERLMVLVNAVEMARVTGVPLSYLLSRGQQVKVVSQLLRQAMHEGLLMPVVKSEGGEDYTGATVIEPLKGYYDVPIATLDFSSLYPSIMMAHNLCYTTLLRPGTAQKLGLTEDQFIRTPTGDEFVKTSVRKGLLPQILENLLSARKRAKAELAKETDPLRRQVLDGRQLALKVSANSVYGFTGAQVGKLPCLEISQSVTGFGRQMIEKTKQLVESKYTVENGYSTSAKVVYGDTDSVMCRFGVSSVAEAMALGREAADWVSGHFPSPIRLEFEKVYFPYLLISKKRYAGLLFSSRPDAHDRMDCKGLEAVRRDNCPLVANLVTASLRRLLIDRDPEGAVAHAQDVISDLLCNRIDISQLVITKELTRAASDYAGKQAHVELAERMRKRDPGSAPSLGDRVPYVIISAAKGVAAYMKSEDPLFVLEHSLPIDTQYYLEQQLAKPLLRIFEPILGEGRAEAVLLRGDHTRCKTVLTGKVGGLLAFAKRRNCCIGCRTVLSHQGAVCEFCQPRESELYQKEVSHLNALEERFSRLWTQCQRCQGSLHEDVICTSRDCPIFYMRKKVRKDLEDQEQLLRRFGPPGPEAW

Legend:
[1] = biological target: Flag-RTEL1 (full-length) (human) (UniProt Q9NZ71); test: co-IP; HEK293T transfected with Flag-RTEL1 (full-length or deletion constructs) or mock; Flag immunoprecipitation with anti-Flag beads (3xFlag peptide elution for the deletion constructs); immunoblot for endogenous partners
GFP-RTEL1 WT (human) = GFP-RTEL1 WT (human) (UniProt Q9NZ71); test: co-IP; HEK293T cotransfected with HA-Poldip3 and GFP or GFP-RTEL1 (WT or mutant), 24 h; GFP immunoprecipitation, immunoblot with HA and GFP antibodies; also with DNA nuclease treatment of lysates, and after hydroxyurea or camptothecin
[2] = biological target: endogenous RTEL1 (human (endogenous in U2OS and HEK293T)) (UniProt Q9NZ71); test: co-IP; endogenous proteins; U2OS cells harvested in EBC buffer, lysates treated with DNases and RNases, precleared; immunoprecipitation with IgG or RTEL1 antibody; release with glycine-HCl buffer
[3] = biological target: Flag-RTEL1 deletion construct: RTEL1 N terminus harboring the helicase domain (human); test: co-IP; HEK293T transfected with Flag-RTEL1 (full-length or deletion constructs) or mock; Flag immunoprecipitation with anti-Flag beads (3xFlag peptide elution for the deletion constructs); immunoblot for endogenous partners

binding [1]: binds
Molecule: POLD1 (from UniProt P28340 1-1107)

binding (GFP-RTEL1 WT (human)): binds
B1: HA-Poldip3 (protein, UniProt Q9BY77 1-421)
chain: MADISLDELIRKRGAAAKGRLNARPGVGGVRSRVGIQQGLLSQSTRTATFQQRFDARQKIGLSDARLKLGVKDAREKLLQKDARFRIKGKVQDAREMLNSRKQQTTVPQKPRQVADAREKISLKRSSPAAFINPPIGTVTPALKLTKTIQVPQQKAMAPLHPHPAGMRINVVNNHQAKQNLYDLDEDDDGIASVPTKQMKFAASGGFLHHMAGLSSSKLSMSKALPLTKVVQNDAYTAPALPSSIRTKALTNMSRTLVNKEEPPKELPAAEPVLSPLEGTKMTVNNLHPRVTEEDIVELFCVCGALKRARLVHPGVAEVVFVKKDDAITAYKKYNNRCLDGQPMKCNLHMNGNVITSDQPILLRLSDSPSMKKESELPRRVNSASSSNPPAEVDPDTILKALFKSSGASVTTQPTEFKIKL

binding [2]: binds
binding [3]: binds
binding [1]: binds
B2: endogenous Poldip3 (protein, UniProt Q9BY77 1-421)
chain: B1 chain

binding [1]: binds
B3: POLD3 (protein, UniProt Q15054 1-466)
chain: MADQLYLENIDEFVTDQNKIVTYKWLSYTLGVHVNQAKQMLYDYVERKRKENSGAQLHVTYLVSGSLIQNGHSCHKVAVVREDKLEAVKSKLAVTASIHVYSIQKAMLKDSGPLFNTDYDILKSNLQNCSKFSAIQCAAAVPRAPAESSSSSKKFEQSHLHMSSETQANNELTTNGHGPPASKQVSQQPKGIMGMFASKAAAKTQETNKETKTEAKEVTNASAAGNKAPGKGNMMSNFFGKAAMNKFKVNLDSEQAVKEEKIVEQPTVSVTEPKLATPAGLKKSSKKAEPVKVLQKEKKRGKRVALSDDETKETENMRKKRRRIKLPESDSSEDEVFPDSPGAYEAESPSPPPPPSPPLEPVPKTEPEPPSVKSSSGENKRKRKRVLKSKTYLDGEGCIVTEKVYESESCTDSEEELNMKTSSVHRPPAMTVKKEPREERKGPKKGTAALGKANRQVSITGFFQRK
